Shown are results outside the selection of targets with a hit, which stands elsewhere. The data scatter; read single values as rough. The list shows a part of the results, in another mix than the full data.
compound: COC(=O)/C=C/c1ccccc1 [methyl cinnamate]; experiment: log2 ratio of iodoacetamide-alkyne labeling of the cysteine site, DMSO over compound (competition); higher = stronger covalent engagement of the cysteine by the compound, active = 1 or more; details: 500 µM; treatment time 1 h; system: HEK293T cell lysate
Summary of the method: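 Three replicates, each with duplicate channels, were prepared from HEK293T lysate (2 mg/mL) treated with vehicle or electrophile at 500 µM for 1 h at ambient temperature. Iodoacetamide alkyne was then applied for 1 h, and samples were clicked to sCIP-TMT reagents, pooled, trypsin-digested overnight at 37 °C, enriched on streptavidin, acid-eluted and analysed on Orbitrap Eclipse LC-MS/MS with FAIMS, with FragPipe quantification. The log2 competition ratio per cysteine is the mean control-channel divided by the mean compound-channel reporter intensity. Cysteines quantified in only one replicate were left out.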

Protein sequences, listed by entry. Tags and fused reporters are not part of them. Lines headed by an entry give the natural chain unless they say otherwise; changes in a name come on top.
UniProt Q9NQX3: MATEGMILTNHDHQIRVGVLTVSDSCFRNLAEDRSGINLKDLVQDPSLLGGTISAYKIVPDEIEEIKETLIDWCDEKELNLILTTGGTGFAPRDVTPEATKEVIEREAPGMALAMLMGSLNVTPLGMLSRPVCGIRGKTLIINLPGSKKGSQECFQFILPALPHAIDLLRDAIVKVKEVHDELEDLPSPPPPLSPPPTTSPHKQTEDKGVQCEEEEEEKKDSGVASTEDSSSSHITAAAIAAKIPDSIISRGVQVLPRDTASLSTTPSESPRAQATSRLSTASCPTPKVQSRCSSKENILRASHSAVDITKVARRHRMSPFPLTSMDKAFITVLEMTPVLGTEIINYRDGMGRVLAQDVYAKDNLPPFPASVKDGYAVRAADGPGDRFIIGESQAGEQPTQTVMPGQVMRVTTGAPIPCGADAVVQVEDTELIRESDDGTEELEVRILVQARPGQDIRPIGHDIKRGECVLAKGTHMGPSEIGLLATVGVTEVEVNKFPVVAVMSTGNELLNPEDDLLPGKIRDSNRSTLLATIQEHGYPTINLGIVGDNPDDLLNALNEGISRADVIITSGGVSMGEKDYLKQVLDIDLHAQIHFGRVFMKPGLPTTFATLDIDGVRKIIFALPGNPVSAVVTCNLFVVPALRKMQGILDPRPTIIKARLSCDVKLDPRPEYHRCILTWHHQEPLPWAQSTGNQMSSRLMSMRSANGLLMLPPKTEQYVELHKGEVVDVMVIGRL
UniProt Q9NQ55: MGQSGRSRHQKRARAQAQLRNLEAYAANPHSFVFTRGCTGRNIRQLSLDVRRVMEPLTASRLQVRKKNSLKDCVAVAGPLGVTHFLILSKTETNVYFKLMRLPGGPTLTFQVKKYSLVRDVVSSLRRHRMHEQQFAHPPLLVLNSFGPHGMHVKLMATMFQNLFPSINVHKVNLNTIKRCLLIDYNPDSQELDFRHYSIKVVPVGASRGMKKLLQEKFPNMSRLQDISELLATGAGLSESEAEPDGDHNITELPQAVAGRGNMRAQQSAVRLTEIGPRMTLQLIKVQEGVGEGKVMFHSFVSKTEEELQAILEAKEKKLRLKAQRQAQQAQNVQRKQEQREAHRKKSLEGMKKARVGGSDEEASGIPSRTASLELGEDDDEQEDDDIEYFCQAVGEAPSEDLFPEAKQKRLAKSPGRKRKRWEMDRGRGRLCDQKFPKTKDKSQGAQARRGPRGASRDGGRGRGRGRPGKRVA
UniProt Q9H3H3: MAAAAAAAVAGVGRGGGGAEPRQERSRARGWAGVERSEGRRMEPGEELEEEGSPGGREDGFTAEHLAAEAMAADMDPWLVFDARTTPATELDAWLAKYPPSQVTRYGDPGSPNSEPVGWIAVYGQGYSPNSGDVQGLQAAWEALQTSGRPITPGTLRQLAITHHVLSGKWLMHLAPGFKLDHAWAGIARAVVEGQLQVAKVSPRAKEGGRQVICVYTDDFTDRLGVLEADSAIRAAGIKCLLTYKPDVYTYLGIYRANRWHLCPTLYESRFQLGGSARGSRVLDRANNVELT
UniProt Q9HC98: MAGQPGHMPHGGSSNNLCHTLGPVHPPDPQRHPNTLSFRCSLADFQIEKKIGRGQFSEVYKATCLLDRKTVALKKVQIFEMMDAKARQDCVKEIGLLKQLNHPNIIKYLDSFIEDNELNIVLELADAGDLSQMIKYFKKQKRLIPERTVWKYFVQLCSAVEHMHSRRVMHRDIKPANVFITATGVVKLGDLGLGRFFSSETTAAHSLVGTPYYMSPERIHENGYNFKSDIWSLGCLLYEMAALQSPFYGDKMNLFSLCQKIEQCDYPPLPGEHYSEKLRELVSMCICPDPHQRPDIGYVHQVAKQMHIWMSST
UniProt Q9NSK0: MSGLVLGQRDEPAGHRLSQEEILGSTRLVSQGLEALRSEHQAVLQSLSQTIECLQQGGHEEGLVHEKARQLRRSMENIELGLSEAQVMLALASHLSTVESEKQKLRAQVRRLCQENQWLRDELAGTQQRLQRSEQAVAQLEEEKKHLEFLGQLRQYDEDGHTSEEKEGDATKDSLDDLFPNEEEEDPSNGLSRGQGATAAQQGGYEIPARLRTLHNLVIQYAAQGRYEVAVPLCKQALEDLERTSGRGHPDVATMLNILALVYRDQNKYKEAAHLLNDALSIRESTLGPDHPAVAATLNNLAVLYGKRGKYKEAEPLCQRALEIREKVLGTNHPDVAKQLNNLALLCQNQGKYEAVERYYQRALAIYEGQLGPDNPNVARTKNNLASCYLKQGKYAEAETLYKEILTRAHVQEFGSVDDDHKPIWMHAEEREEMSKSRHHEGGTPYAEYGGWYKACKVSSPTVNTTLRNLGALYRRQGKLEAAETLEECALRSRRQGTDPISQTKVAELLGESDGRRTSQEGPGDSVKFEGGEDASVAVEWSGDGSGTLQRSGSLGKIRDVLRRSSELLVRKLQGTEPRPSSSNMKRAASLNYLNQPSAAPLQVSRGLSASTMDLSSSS
UniProt Q9HCM4: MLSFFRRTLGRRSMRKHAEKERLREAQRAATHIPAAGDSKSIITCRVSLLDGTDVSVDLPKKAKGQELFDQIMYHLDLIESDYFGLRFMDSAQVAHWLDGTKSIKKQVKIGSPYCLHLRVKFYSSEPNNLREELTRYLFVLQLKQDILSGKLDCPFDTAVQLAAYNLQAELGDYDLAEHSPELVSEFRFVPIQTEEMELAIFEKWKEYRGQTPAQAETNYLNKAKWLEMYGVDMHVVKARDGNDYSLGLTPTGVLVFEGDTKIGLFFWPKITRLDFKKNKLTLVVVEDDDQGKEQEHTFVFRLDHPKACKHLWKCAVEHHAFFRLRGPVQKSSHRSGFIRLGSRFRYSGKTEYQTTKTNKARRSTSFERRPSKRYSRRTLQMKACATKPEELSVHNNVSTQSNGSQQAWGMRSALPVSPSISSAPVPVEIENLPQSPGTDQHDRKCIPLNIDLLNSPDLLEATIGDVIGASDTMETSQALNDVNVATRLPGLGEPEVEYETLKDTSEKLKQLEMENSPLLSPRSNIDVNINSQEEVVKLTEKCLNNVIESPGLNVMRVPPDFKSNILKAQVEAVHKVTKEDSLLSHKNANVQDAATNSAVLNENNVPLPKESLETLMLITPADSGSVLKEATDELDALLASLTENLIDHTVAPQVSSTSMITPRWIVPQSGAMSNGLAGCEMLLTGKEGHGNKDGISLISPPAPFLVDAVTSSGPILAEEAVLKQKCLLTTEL
UniProt Q9NUP1: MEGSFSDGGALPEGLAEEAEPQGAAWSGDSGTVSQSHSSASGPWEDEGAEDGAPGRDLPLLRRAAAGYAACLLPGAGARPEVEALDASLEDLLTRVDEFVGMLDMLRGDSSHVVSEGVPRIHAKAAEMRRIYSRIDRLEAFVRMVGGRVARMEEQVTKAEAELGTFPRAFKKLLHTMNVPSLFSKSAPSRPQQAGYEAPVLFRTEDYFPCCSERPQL
UniProt Q9H840: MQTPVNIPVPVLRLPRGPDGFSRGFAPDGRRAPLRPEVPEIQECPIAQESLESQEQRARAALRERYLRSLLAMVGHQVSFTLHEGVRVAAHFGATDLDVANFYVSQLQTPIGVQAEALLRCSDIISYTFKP
UniProt Q9HAS0: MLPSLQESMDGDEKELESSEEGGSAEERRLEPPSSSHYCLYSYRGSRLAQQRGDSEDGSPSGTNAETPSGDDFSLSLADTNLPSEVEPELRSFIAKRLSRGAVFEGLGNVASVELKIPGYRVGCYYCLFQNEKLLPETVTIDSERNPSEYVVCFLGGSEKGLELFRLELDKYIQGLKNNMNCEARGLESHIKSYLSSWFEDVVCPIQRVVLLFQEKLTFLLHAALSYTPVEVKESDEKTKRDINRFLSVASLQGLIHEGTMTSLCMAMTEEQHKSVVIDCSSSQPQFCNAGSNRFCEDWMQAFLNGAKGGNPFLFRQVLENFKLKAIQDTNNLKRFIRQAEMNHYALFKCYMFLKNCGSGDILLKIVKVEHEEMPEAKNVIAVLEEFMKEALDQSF
UniProt Q9H4L7: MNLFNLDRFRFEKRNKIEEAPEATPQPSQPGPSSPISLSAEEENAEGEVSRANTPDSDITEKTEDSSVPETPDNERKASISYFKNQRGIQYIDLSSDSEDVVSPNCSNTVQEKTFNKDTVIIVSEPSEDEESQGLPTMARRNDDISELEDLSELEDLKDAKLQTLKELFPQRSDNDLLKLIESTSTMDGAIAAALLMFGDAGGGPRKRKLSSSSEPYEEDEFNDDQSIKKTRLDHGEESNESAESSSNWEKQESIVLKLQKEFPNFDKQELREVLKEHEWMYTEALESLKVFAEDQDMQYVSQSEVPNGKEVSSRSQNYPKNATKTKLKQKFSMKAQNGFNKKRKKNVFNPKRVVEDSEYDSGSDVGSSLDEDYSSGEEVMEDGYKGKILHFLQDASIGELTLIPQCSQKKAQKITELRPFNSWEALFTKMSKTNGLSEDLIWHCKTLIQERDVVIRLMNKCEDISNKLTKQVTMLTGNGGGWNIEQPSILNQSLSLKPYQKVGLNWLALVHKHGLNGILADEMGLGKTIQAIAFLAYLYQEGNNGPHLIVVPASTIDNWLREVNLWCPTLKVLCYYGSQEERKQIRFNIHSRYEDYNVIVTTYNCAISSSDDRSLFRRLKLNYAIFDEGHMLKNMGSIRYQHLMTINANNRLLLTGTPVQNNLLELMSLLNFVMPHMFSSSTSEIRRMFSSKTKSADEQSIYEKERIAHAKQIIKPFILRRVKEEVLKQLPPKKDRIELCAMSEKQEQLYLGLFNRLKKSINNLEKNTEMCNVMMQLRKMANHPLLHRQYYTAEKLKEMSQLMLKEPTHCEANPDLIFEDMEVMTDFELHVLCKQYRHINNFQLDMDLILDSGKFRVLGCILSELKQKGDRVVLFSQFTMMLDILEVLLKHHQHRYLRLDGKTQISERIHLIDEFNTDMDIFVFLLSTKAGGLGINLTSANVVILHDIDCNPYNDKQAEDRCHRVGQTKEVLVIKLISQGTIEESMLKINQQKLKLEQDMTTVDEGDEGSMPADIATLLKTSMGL
UniProt Q9H6R7: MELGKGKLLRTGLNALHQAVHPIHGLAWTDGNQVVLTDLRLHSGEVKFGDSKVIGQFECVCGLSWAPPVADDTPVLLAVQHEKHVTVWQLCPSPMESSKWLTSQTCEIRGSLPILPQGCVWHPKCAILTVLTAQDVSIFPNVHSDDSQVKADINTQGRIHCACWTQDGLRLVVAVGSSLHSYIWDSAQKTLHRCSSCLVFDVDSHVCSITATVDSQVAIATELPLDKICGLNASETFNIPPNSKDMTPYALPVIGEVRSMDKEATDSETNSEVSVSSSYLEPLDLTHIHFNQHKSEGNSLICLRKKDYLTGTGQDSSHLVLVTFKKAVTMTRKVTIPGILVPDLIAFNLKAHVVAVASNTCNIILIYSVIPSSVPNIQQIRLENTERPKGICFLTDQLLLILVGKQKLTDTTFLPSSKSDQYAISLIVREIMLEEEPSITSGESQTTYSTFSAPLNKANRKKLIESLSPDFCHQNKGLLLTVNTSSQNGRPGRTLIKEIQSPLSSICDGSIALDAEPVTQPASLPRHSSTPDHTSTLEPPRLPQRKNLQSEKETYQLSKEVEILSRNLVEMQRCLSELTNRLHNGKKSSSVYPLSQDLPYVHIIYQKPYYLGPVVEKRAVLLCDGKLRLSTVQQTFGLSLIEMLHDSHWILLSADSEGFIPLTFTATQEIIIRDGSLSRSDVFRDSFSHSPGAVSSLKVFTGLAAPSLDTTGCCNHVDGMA
UniProt Q9NPJ6: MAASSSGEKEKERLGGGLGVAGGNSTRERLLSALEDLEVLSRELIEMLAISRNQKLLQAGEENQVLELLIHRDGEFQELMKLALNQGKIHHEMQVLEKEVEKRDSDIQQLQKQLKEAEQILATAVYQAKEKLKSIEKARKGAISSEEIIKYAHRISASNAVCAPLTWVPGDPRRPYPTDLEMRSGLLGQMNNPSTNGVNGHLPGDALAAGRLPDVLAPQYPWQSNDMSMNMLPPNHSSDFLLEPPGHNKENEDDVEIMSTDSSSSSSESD
UniProt Q9NQW7: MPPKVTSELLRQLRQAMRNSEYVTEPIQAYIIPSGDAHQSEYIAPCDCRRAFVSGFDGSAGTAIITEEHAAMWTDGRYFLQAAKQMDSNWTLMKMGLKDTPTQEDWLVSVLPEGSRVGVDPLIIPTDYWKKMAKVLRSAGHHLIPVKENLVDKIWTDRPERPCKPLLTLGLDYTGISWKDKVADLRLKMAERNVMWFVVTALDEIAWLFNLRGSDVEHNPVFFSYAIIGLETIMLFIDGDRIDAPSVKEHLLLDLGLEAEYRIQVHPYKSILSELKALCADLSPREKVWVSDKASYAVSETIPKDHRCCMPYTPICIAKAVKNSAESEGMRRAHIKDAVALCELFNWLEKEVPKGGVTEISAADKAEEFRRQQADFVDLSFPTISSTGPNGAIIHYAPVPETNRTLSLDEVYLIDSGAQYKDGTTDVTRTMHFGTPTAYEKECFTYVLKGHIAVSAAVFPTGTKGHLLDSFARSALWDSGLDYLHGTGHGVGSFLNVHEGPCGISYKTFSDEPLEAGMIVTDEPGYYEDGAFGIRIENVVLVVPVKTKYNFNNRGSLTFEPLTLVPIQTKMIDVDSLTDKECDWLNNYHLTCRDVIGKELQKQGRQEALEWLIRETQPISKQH

log2 ratio of iodoacetamide-alkyne labeling, inactive:
GPHN C284 (UniProt Q9NQX3) 0.275
RNPEP C223 (UniProt Q9H4A4) -0.0804
PPAN C391 (UniProt Q9NQ55) 0.177
C11orf68 C199 (UniProt Q9H3H3) 0.0529
UniProt Q9NSY1_C912 0.413
NEK6 C40 (UniProt Q9HC98) 0.154
STRN4 C580 (UniProt Q9NRL3) -0.314
DSN1 C355 (UniProt Q9H410) 0.386
KLC4 C53 (UniProt Q9NSK0) 0.0102
MDN1 C95 (UniProt Q9NU22) 0.234
SAR1A C102 (UniProt Q9NR31) -0.106
GPHN C293 (UniProt Q9NQX3) 0.483
UniProt Q9NR48_C747 0.141
NIT2 C153 (UniProt Q9NQR4) -0.025
PHAX C87 (UniProt Q9H814) 0.706
EPB41L5 C727 (UniProt Q9HCM4) -0.0993
CHD8 C1947 (UniProt Q9HCK8) 0.201
UBQLN4 C29 (UniProt Q9NRR5) 0.493
MDN1 C57 (UniProt Q9NU22) -0.221
ATG3 C264 (UniProt Q9NT62) 0.149
MLXIP C738 (UniProt Q9HAP2) -0.173
TUBB1 C12 (UniProt Q9H4B7) 0.147
XPO5 C1044 (UniProt Q9HAV4) 0.313
UniProt Q9NUP1_C210 0.169
GEMIN7 C121 (UniProt Q9H840) 0.283
C17orf75 C296 (UniProt Q9HAS0) 0.59
PEAK1 C993 (UniProt Q9H792) 0.181
SMYD3 C421 (UniProt Q9H7B4) 0.102
SMARCAD1 C772 (UniProt Q9H4L7) 0.115
DDX21 C291 (UniProt Q9NR30) 0.214
HEATR1 C631 (UniProt Q9H583) -0.14
UniProt Q9H6R7_C574 0.216
UniProt Q9H6R7_C507 0.434
CD320 C67 (UniProt Q9NPF0) 0.336
MED4 C162 (UniProt Q9NPJ6) 0.23
NIT2 C146 (UniProt Q9NQR4) 0.332
XPNPEP1 C309 (UniProt Q9NQW7) -0.00333

A stretch from further up:
log2 ratio of iodoacetamide-alkyne labeling, inactive:
HEATR1 C631 (UniProt Q9H583) -0.14
UniProt Q9H6R7_C574 0.216
